Results are given in words; binding and its absence hold for the method and conditions named. Binding seen in cells or lysates may run through a third protein. These calls come from enrichment with a bait or labelling near it, and not all partners need be listed.

Protein sequences, listed by entry. Tags and fused reporters are not part of them.
UniProt O43255: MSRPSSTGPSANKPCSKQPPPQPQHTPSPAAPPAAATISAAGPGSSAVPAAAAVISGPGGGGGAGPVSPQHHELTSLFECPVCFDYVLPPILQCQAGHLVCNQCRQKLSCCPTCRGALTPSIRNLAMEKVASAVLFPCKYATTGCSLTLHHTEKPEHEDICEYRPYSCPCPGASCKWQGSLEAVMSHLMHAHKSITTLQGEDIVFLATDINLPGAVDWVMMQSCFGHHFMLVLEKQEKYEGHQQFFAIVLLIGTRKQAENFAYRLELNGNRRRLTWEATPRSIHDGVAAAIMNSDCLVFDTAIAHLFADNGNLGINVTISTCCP
UniProt Q9Y5S2: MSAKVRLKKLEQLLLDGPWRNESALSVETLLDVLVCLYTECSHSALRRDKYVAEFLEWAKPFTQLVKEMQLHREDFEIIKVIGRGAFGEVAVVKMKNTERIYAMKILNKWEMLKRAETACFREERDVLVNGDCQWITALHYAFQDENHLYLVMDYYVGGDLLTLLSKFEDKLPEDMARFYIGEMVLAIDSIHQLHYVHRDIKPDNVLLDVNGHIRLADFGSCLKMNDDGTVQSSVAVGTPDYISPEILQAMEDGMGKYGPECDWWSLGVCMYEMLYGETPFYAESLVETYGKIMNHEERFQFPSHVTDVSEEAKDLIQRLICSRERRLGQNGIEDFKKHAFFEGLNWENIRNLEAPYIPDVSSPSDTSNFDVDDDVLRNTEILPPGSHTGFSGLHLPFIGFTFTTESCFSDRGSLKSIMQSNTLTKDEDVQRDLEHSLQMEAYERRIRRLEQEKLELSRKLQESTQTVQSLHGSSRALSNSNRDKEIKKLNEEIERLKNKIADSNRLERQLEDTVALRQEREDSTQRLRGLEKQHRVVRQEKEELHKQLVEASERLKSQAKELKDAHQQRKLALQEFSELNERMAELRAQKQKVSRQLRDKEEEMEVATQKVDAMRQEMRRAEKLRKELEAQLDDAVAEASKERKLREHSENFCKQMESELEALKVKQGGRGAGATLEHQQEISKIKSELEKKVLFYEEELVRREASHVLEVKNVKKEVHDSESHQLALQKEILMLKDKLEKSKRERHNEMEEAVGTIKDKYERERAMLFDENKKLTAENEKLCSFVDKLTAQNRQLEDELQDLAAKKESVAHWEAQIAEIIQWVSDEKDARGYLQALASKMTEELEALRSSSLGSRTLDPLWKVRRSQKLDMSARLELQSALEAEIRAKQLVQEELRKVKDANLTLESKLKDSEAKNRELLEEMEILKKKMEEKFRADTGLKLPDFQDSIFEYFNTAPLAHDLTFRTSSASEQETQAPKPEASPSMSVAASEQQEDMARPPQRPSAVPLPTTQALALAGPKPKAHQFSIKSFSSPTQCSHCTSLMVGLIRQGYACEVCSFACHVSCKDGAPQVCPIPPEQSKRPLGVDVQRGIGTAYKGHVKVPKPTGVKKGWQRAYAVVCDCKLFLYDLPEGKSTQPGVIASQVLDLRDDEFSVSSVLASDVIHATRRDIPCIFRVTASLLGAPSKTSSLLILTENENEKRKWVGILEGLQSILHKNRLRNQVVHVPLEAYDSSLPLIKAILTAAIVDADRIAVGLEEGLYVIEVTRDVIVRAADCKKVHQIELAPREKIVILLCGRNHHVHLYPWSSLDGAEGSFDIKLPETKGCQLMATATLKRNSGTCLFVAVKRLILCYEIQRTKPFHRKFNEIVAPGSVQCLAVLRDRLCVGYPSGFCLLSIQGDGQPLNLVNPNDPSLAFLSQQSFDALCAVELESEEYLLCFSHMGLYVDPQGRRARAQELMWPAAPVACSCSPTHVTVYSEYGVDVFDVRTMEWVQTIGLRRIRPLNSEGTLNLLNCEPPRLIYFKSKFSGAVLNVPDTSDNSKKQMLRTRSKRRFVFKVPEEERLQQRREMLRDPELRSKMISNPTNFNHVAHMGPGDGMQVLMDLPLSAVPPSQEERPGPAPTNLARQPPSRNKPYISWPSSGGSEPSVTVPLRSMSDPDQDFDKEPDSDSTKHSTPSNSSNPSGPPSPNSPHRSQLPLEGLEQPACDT

For the experiment, the target named is seven in absentia homolog 2 (Siah2), overexpressed from the full-length human siah2 plasmid (human) (UniProt O43255). Nature of the experiment: affinity purification with mass spectrometry; MKN45 cells transfected with siah2 overexpression plasmid or vector control, infected with H. pylori 26695 for 12 h at 200 MOI; whole cell lysates immunoprecipitated with Siah2 antibody, SDS-PAGE, Coomassie staining, bands cut, mass spectrometry.

For “myotonic dystrophy kinase-related Cdc42-binding kinase β (MRCKβ), endogenous (from UniProt Q9Y5S2 1-1711) (enzyme)”, the binding entry is recorded as “binds”.
